# Laboratory results taken from PubChem BioAssay AID485353 (National Center for Advancing Translational Sciences (NCATS), 2010).
# Out of some 330,000 compounds screened, about 610 (0.18%) were called active. This list was built around the results that the source calls inconclusive (neither active nor inactive); the mix of calls is not that of the screen. Calls come from the whole dose curve. Potencies of inconclusive entries are doubtful fits and often do not repeat.
# Experiment: qHTS of Yeast-based Assay for SARS-CoV PLP; note: nearly all actives have a fitted effect of over 55% in size
# Details: S. cerevisiae expressing SARS-CoV PLpro; Potency: growth rescue; series mostly up to 32.9 µM
# Potency is the fitted concentration of half-maximal effect.
row,SMILES,Potency
1,COc1cccc(C(=O)Nc2nnc(S(=O)(=O)N3CCCCC3)s2)c1,"inconclusive: 17.8 µM [activator, single point]"
2,COc1cccc(-n2c(SCc3cc(=O)oc4cc(O)c(O)cc34)nc3ccccc3c2=O)c1,active: 14.1 µM
3,CCCCC(=O)Nc1ccc(C(=O)NCCc2ccccc2)cc1,"inconclusive: 10 µM [activator, partial curve]"
4,Cc1cc(=O)oc(C)c1C(=O)N1CCN(C)CC1,"inconclusive: 20 µM [activator, single point]"
5,CC(=O)Nc1ccc(NC(=O)c2ccc(NC(=O)c3ccccc3)cc2)cc1,"inconclusive: 4.47 µM [activator, single point]"
6,COc1cc(/C=C2\C(=N)N3N=C(N4CCOCC4)SC3=NC2=O)ccc1OC(=O)c1ccccc1,inactive
7,Cc1cc(C)c2nc(NNC(=O)c3ccc(S(=O)(=O)N4CCCC(C)C4)cc3)sc2c1 (centres undefined),"inconclusive: 4.47 µM [activator, full curve]"
8,CC(=O)Nc1ccc(Cl)cc1C(=O)O,"inconclusive: 22.4 µM [activator, single point]"
9,COc1ccc(/C=N/Nc2nc(C(=O)O)cs2)cc1,"inconclusive: 4.47 µM [activator, single point]"
10,C=CCn1c(-c2cccnc2)n[nH]c1=S,"inconclusive: 2.24 µM [activator, full curve]"
11,CC(=O)c1cccc(OCc2cc(C(=O)N3CCSCC3)no2)c1,"inconclusive: 20 µM [activator, single point]"
12,CC(=O)Nc1ccc(S(=O)(=O)N2CCC(c3nc4ccc(C)cc4[nH]3)CC2)cc1,"inconclusive: 1 µM [activator, partial curve]"
13,COc1ccc(-c2cn(CCC(=O)O)c(-c3ccc(Cl)nc3)n2)cc1,"inconclusive: 3.16 µM [activator, single point]"
14,Cc1ccccc1N=Nc1ccc(O)c2ncccc12,active: 3.55 µM
15,COc1ccc(CN=CC2=C(O)CNC2=O)cc1,"inconclusive: 3.55 µM [activator, single point]"
16,Cc1ccc(-c2csc(NC(=O)CSc3nnc4c(n3)[nH]c3ccccc34)n2)cc1,"inconclusive: 1.78 µM [activator, full curve]"
17,Cc1cccc(C2CC(c3ccccc3)Nc3nc(N)nn32)c1 (centres undefined),"inconclusive: 20 µM [activator, single point]"
18,C/C(=N\NC(=O)Cc1ccccc1)c1ccc(Cl)s1,inactive
19,COC(=O)c1ccc(CNC(=O)CCc2c[nH]c3ccccc23)cc1,inactive
20,CC(=O)Nc1cccc(-c2nnc(-c3ccccc3)o2)c1,"inconclusive: 3.98 µM [activator, single point]"
21,Cc1nc(NC(=S)Nc2ccccc2)sc1C,"inconclusive: 4.47 µM [activator, partial curve]"
22,Cc1nnc(SCC(=O)NCc2ccccc2)[nH]c1=O,"inconclusive: 3.16 µM [activator, single point]"

# Entries from the list above that contain a Cl atom:
row,SMILES,Potency
8,CC(=O)Nc1ccc(Cl)cc1C(=O)O,"inconclusive: 22.4 µM [activator, single point]"
13,COc1ccc(-c2cn(CCC(=O)O)c(-c3ccc(Cl)nc3)n2)cc1,"inconclusive: 3.16 µM [activator, single point]"
18,C/C(=N\NC(=O)Cc1ccccc1)c1ccc(Cl)s1,inactive

# Further compounds follow:

row,SMILES,Potency
1,COc1ccc(C(c2oc(CO)cc(=O)c2O)c2oc(CO)cc(=O)c2O)cc1OC,active: 7.94 µM
2,Cc1ccccc1NC(=O)CSc1nnc(Cc2cccn2C)n1-c1ccc(F)cc1,inactive
3,Cc1ccc(Cn2c(NS(=O)(=O)c3ccccc3)nc3ccccc32)cc1,"inconclusive: 20 µM [activator, single point]"
4,CCCCN(C)CCNC(=O)CN1C(=O)CSc2ccc(S(=O)(=O)N3CCCC3)cc21,"inconclusive: 12.6 µM [activator, single point]"
5,CCCCN(C(=O)c1ccc(Cl)cc1)C1CC2CCC(C1)N2C (centres undefined),inactive
6,O=S(=O)(Nc1ccc(N2CCCCC2)cc1)c1cccc2cccnc12,"inconclusive: 10 µM [activator, partial curve]"
7,O=C(CSc1nnc(-c2ccc(Br)cc2)n1CCc1ccccc1)NC1CCS(=O)(=O)C1 (centres undefined),inactive
8,CC(NC(=O)C(C(=O)c1cccc([N+](=O)[O-])c1)n1cc(Cl)ccc1=O)c1ccccc1 (centres undefined),"inconclusive: 8.91 µM [activator, single point]"
9,C/C(=N\NC(=O)c1ccncc1)c1cccc(NC(=O)c2ccc(Cl)s2)c1,"inconclusive: 3.98 µM [activator, single point]"
10,CC(C)(C)NC(=O)C(c1ccncc1)N(C(=O)Cn1nnc(-c2ccc(F)cc2)n1)c1ccccc1 (centres undefined),inactive
11,CC12CCC(C(=O)NCc3ccc4c(c3)OCO4)(OC1=O)C2(C)C (centres undefined),"inconclusive: 4.47 µM [activator, single point]"
12,Cc1c(N)cccc1-c1nc2ccccc2[nH]1,"inconclusive: 4.47 µM [activator, single point]"
13,Cc1nn(-c2ccccc2)c(Cl)c1/C=N/Nc1ccc(S(=O)(=O)Nc2ccccc2C(=O)O)cc1[N+](=O)[O-],"inconclusive: 4.47 µM [activator, single point]"
14,O=C(NCCCN1CCOCC1)c1sc2cc(Cl)ccc2c1Cl,inactive
15,COCCn1c(Cc2ccccc2)nnc1SCc1ccc([N+](=O)[O-])cc1,"inconclusive: 2.24 µM [activator, single point]"
16,CCOC(=O)c1ccc(N(C(=O)c2cnccn2)C(C(=O)NC2CCCCC2)c2cn(C)nc2C)cc1 (centres undefined),"inconclusive: 4.47 µM [activator, single point]"
17,CCN(CC(=O)Nc1ccc(NC(C)=O)cc1)C(=O)COc1ccc(C(=O)c2ccccc2)cc1,"inconclusive: 0.398 µM [activator, partial curve, poor fit]"
18,N#Cc1c2c(c(NCc3ccco3)n3c1nc1ccccc13)CCC2,inactive
19,CC(=O)OC(C(=O)N1CCN(c2ccc(F)cc2)CC1)c1ccccc1 (centres undefined),"inconclusive: 0.355 µM [activator, full curve, poor fit]"
20,O=C1C2C3C=CC(C3)C2C(=O)N1c1ccccc1OS(=O)(=O)c1ccccc1 (centres undefined),"inconclusive: 17.8 µM [activator, single point]"
21,Oc1ccc(CN2CCN(c3ccccc3)CC2)c2cccnc12,active: 11.2 µM
22,CC1(C)C(=O)Nc2ccccc2N1C(=O)COc1cccnc1[N+](=O)[O-],inactive
